# Measurements: patent US9056899B2 (priority 2008, dated 2015)
# “Also recorded” adds a separate entry of the source. Where two headings read alike, the source gives them in different places. At least one structure is not confirmed: it was looked up by name or label, or the drawing left a doubt.
# Columns and labels:
# [1] = system: BW25113 and gene knockouts; details: cited from earlier work
# E. coli EMG2 = assay: Antibiotic resistance assay; type: cell-based; details: resistant to 100 ng/mL ofloxacin; 30 ng/mL ofloxacin 24 hours; phage (10^9 PFU/mL) added for the last 12 hours where named
# Description: Antibiotic resistance assay. To analyze the effect of subinhibitory concentrations of ofloxacin on the development of antibiotic-resistant mutants, the inventors grew 1:10^8 dilutions of overnight EMG2 in LB media containing either no ofloxacin (FIG. 4) or 30 ng/mL ofloxacin (FIG. 7). After 12 hours of growth at 37° C. and 300 rpm, the inventors split the cells grown in no ofloxacin into 100 uL aliquots with no ofloxacin in 60 wells in 96-well plate format (Costar 3370; Fisher Scientific, Pittsburgh, Pa.). The inventors also split the cells grown in 30 ng/mL ofloxacin into 100 uL aliquots in 60 wells with either no phage and 30 ng/mL ofloxacin (FIG. 7B), φunmod phage and 30 ng/mL ofloxacin (FIG. 7C), and φlexA3 and 30 ng/mL ofloxacin (FIG. 7D) in 96-well plate format. The inventors placed the 96-well plates in 37° C. and 300 rpm with plastic bags to minimize evaporation. After 12 hours of treatment, the inventors plated cultures from each well on LB agar+100 ng/mL ofloxacin to select for mutants that developed resistance against ofloxacin. To compare results, the inventors plotted histograms of the number of resistant bacteria found in each well in FIGS. 4 and 8.
smiles,measurement,setting,value
CO[C@H]1/C=C/O[C@@]2(C)Oc3c(C)c(O)c4c(O)c(c(/C=N/N5CCN(C)CC5)c(O)c4c3C2=O)NC(=O)/C(C)=C\C=C\[C@H](C)[C@H](O)[C@@H](C)[C@@H](O)[C@@H](C)[C@H](OC(C)=O)[C@@H]1C [Rifampicin],MIC Plating,[1]; BW25113 starting strain,16 µg/mL
same,MIC Plating,[1]; acrA knockout,>10 µg/mL
same,MIC Plating,[1]; acrB knockout,10 µg/mL
same,MIC Plating,[1]; cedA knockout,10 µg/mL
same,MIC Plating,[1],10 µg/mL
same,MIC Plating,[1]; degP knockout,10 µg/mL
same,MIC Plating,[1]; dnaK knockout,7.5 µg/mL
same,MIC Plating,[1]; elaD knockout,>10 µg/mL
same,MIC Plating,[1]; envC knockout,10 µg/mL
same,MIC Plating,[1]; envZ knockout,10 µg/mL
same,MIC Plating,[1]; fabF knockout,5 µg/mL
same,MIC Plating,[1]; fepC knockout,10 µg/mL
same,MIC Plating,[1]; folB knockout,>10 µg/mL
same,MIC Plating,[1]; gpmB knockout,10 µg/mL
same,MIC Plating,[1]; gpmM knockout,>10 µg/mL
same,MIC Plating,[1]; hfq knockout,10 µg/mL
same,MIC Plating,[1]; hns knockout,7.5 µg/mL
same,MIC Plating,[1]; lpp knockout,5 µg/mL
same,MIC Plating,[1]; lptB knockout,10 µg/mL
same,MIC Plating,[1]; msbB knockout,7.5 µg/mL
same,MIC Plating,[1]; nagA knockout,5 µg/mL
same,MIC Plating,[1]; pal knockout,5 µg/mL
same,MIC Plating,[1]; pgmB knockout,10 µg/mL
same,MIC Plating,[1]; plsX knockout,10 µg/mL
same,MIC Plating,[1]; ppiB knockout,5 µg/mL
same,MIC Plating,[1]; prfC knockout,10 µg/mL
same,MIC Plating,[1]; pstA knockout,5 µg/mL
same,MIC Plating,[1]; pstS knockout,7.5 µg/mL
same,MIC Plating,[1]; qmcA knockout,10 µg/mL
same,MIC Plating,[1]; recC knockout,7.5 µg/mL
same,MIC Plating,[1]; recN knockout,7.5 µg/mL
same,MIC Plating,[1]; rfaD knockout,10 µg/mL
same,MIC Plating,[1]; rfaE knockout,7.5 µg/mL
same,MIC Plating,[1]; rfaG knockout,2 µg/mL
same,MIC Plating,[1]; rfaH knockout,7.5 µg/mL
same,MIC Plating,[1]; rimK knockout,10 µg/mL
same,MIC Plating,[1]; rluB knockout,10 µg/mL
same,MIC Plating,[1]; rnt knockout,>10 µg/mL
same,MIC Plating,[1]; rpe knockout,10 µg/mL
same,MIC Plating,[1]; rplA knockout,7.5 µg/mL
same,MIC Plating,[1]; rpmE knockout,5 µg/mL
same,MIC Plating,[1]; rpmF knockout,7.5 µg/mL
same,MIC Plating,[1]; rpmJ knockout,7.5 µg/mL
same,MIC Plating,[1]; rseA knockout,7.5 µg/mL
same,MIC Plating,[1]; skp knockout,5 µg/mL
same,MIC Plating,[1]; smpA knockout,5 µg/mL
same,MIC Plating,[1]; surA knockout,2 µg/mL
same,MIC Plating,[1]; tatC knockout,10 µg/mL
same,MIC Plating,[1]; tolR knockout,3.5 µg/mL
same,MIC Plating,[1]; tonB knockout,>10 µg/mL
same,MIC Plating,[1]; trxA knockout,5 µg/mL
same,MIC Plating,[1]; uvrA knockout,7.5 µg/mL
same,MIC Plating,[1]; xapR knockout,>10 µg/mL
same,MIC Plating,[1]; ybcN knockout,7.5 µg/mL
same,MIC Plating,[1]; ybeY knockout,10 µg/mL
same,MIC Plating,[1]; ybgF knockout,>10 µg/mL
same,MIC Plating,[1]; ycbR knockout,10 µg/mL
same,MIC Plating,[1]; yceD knockout,5 µg/mL
same,MIC Plating,[1]; ychJ knockout,7.5 µg/mL
same,MIC Plating,[1]; yciM knockout,7.5 µg/mL
same,MIC Plating,[1]; yfgC knockout,5 µg/mL
same,MIC Plating,[1]; yfgL knockout,>10 µg/mL
same,MIC Plating,[1]; ygdD knockout,10 µg/mL
same,MIC Plating,[1]; yhdP knockout,10 µg/mL
same,MIC Plating,[1]; yjjY knockout,>10 µg/mL
same,MIC Plating,[1]; ylcG knockout,5 µg/mL
CC1COc2c(N3CCN(C)CC3)c(F)cc3c(=O)c(C(=O)O)cn1c23 (centres unmarked) [ofloxacin],distribution of resistant CFUs over the 60 samples (in words),E. coli EMG2,no observations had less than 50 resistant cells
same,level of antibiotic-resistant cells (in words),E. coli EMG2,a high number of antibiotic-resistant bacteria; also recorded: a very high number of antibiotic-resistant bacteria; also recorded: high numbers of resistant cells
